# According to the supplement of paper PMC7666118:
# By UniProt entry, the sequences of proteins in these tests, tags left out. Where a name states a change or a piece, a line headed by the entry shows the natural chain unless it says otherwise.
# UniProt Q13618, whole entry: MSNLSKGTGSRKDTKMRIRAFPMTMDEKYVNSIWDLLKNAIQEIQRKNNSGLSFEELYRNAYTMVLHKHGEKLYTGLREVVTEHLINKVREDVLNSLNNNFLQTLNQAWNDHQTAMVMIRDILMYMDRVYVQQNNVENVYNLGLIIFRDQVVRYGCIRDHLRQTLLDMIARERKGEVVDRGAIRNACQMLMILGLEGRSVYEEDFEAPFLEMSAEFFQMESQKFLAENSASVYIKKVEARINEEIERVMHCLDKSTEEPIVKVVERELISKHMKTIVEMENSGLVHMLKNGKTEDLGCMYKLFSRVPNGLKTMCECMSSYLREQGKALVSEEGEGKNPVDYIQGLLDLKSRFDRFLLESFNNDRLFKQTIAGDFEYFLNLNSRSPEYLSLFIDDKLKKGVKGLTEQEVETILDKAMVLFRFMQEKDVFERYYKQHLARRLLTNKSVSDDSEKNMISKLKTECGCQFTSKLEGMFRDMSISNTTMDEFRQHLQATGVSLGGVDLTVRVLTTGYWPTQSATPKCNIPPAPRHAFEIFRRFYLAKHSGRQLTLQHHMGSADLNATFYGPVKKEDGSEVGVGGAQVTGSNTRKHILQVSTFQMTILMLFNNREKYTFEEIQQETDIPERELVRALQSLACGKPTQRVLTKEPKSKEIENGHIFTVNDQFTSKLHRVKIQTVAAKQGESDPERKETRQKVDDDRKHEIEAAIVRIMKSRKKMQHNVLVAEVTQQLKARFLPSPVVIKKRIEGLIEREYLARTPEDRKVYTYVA
# UniProt Q9H2P9: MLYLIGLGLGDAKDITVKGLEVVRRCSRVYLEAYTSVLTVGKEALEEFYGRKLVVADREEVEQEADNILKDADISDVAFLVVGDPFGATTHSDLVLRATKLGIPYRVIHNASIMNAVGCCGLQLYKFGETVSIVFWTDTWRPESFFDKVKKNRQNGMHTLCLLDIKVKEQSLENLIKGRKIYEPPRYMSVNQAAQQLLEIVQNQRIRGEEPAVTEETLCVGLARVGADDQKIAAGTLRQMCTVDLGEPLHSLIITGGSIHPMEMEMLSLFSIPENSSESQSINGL
# UniProt O43169: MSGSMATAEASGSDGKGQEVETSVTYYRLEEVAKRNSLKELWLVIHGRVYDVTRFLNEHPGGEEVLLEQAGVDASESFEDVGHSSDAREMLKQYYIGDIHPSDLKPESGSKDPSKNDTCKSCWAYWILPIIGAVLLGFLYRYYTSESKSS
# UniProt Q9BU89: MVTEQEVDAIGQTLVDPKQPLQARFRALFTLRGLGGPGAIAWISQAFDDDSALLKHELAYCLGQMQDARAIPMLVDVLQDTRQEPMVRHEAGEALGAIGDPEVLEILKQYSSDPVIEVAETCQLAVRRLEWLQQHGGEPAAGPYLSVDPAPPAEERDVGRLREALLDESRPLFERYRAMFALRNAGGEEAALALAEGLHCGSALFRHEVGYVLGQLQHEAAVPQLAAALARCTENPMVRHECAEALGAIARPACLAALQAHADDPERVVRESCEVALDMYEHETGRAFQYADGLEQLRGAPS
# UniProt Q6P2E9: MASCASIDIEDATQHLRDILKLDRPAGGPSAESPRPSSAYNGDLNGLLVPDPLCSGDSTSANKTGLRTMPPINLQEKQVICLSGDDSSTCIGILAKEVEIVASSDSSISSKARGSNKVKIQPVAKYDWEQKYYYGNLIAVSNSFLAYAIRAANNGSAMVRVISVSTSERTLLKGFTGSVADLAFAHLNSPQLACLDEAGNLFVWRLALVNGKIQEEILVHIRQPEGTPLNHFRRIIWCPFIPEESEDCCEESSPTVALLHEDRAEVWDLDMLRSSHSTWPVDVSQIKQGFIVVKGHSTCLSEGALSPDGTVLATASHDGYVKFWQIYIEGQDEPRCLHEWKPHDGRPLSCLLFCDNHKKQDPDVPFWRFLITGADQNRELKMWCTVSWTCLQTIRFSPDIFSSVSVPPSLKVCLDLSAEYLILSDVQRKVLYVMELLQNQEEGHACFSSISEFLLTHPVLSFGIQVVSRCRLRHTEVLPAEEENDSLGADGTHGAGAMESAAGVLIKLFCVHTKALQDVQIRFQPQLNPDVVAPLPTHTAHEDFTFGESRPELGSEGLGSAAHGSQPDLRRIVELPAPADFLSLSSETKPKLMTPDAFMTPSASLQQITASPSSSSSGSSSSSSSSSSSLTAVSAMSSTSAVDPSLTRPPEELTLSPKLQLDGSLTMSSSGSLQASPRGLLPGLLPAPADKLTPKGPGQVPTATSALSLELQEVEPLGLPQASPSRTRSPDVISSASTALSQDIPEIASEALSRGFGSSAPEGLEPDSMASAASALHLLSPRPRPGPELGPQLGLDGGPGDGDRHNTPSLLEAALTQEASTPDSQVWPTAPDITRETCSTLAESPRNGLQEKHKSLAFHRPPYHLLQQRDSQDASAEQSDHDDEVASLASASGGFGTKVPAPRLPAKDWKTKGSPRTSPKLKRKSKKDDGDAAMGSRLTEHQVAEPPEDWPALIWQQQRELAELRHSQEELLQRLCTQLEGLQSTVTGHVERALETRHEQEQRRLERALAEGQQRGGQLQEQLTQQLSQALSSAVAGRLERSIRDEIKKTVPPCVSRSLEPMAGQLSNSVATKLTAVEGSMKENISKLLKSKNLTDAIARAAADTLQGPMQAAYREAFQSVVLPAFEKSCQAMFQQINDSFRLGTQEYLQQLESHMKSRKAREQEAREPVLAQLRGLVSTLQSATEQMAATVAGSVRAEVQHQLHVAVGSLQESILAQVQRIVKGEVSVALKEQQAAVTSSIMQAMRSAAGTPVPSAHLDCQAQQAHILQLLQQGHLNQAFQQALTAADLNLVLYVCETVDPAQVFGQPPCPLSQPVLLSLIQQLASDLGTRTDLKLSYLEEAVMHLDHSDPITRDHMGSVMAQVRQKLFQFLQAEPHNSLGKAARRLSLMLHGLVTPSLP
# UniProt Q05048: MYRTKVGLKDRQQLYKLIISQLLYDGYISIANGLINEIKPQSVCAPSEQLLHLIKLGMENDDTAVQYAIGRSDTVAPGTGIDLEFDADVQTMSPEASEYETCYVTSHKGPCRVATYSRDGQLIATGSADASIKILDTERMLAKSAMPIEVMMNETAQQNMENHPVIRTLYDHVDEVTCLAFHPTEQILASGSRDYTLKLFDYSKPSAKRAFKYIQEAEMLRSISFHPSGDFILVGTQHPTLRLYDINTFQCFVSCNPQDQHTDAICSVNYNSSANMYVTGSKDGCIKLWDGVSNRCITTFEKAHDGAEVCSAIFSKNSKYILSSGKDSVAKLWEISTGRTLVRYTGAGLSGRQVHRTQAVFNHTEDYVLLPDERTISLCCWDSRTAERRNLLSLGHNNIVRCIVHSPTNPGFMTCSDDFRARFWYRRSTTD
# UniProt Q4LDG9: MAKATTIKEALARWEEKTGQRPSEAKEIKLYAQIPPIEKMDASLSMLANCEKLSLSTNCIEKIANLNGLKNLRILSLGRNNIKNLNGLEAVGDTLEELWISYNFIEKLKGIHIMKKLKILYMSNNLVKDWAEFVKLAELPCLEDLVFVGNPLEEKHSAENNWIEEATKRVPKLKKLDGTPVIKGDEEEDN
# UniProt O43310: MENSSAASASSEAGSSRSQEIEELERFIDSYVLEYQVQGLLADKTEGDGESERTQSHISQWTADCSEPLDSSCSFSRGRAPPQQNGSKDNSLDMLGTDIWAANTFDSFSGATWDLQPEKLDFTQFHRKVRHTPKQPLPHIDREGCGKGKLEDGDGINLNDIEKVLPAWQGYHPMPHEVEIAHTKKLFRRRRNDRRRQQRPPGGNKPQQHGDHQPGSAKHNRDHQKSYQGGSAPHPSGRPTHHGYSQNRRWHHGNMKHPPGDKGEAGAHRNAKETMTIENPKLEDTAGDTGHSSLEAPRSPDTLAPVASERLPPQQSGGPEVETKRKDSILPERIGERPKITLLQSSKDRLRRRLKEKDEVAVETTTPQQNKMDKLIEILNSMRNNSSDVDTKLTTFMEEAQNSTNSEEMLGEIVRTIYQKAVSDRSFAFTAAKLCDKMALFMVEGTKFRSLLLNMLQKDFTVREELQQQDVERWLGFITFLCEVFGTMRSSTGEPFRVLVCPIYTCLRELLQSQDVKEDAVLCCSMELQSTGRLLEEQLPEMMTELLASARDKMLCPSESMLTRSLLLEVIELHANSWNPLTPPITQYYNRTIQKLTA
# UniProt P21291: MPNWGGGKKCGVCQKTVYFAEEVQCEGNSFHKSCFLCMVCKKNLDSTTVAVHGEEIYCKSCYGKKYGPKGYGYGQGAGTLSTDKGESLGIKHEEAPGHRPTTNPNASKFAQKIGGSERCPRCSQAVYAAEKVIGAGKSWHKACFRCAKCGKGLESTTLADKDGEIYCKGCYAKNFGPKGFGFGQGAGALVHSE
# UniProt P10619: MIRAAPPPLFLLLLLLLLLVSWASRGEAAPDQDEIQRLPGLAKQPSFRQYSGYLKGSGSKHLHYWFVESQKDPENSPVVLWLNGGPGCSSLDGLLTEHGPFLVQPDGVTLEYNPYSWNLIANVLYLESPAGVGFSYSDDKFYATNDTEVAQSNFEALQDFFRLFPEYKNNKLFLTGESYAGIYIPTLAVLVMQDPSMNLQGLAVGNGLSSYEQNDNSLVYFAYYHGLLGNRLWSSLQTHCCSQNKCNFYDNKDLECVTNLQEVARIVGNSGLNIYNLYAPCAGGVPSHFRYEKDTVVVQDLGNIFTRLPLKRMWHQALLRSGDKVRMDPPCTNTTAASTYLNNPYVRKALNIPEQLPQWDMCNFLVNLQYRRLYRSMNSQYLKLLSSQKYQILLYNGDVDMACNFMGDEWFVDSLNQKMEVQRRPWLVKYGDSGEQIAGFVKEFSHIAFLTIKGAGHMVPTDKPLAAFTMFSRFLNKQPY
# UniProt P24534: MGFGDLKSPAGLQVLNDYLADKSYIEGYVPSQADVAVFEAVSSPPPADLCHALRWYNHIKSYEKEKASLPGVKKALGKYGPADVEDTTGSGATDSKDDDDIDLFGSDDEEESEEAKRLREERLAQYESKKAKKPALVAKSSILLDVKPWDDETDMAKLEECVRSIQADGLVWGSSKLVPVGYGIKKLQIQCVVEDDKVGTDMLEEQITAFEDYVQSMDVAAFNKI
# UniProt P14868: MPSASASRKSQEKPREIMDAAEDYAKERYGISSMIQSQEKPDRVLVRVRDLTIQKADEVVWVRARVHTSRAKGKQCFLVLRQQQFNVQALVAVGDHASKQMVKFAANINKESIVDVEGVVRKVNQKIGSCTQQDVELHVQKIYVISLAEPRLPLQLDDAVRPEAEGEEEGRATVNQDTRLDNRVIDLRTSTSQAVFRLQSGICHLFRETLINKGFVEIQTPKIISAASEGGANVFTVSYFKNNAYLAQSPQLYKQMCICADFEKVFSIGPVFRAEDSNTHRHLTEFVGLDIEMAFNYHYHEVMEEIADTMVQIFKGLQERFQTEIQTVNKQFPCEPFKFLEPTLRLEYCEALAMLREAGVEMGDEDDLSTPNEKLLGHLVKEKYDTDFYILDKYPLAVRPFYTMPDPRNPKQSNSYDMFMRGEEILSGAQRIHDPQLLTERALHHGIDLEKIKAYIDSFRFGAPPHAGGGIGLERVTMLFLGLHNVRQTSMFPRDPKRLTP
# UniProt O95786: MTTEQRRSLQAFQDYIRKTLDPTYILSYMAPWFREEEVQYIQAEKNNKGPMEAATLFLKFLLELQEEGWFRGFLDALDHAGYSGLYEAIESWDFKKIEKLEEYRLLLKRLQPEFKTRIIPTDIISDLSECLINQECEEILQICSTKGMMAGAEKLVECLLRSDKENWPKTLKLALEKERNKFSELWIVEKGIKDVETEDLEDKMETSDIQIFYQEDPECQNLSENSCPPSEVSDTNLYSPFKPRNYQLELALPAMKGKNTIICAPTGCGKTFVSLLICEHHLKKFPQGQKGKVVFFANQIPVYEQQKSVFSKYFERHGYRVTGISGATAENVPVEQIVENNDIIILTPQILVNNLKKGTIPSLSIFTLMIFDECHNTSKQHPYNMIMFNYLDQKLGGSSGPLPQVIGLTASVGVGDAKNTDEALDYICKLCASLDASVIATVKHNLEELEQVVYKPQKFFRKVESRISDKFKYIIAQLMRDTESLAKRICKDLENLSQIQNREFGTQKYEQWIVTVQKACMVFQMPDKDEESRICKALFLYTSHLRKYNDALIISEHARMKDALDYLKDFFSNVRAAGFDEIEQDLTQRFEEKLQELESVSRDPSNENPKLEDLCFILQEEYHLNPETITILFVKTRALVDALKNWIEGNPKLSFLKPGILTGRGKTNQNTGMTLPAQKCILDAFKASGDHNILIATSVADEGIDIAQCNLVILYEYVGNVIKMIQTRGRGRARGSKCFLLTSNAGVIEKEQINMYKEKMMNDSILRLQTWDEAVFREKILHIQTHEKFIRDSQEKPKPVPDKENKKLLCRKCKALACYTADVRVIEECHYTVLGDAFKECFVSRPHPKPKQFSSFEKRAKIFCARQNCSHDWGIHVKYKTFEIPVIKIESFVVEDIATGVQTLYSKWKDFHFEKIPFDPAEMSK
# This is one part of the list.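 Rule for the calls: active = dose-dependent thermal stabilisation significant by F-test of dose-response against flat model at 10% FDR; inactive = not significant.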
# Compound: Nc1nc2c(ncn2[C@@H]2O[C@H](COP(=O)(O)OP(=O)(O)OP(=O)(O)O)[C@@H](O)[C@H]2O)c(=O)[nH]1
# Assay: dose-dependent thermal stabilisation call (2D-TPP, DLPTP, 10% FDR) (binary (1 = stabilised)); higher = stabilised by the compound
# Settings: system: Jurkat gel-filtered lysate; concentration range 1-500 µM
row,Target,dose-dependent thermal stabilisation call
1,CUL3 (UniProt Q13618),inactive: 0
2,DPH5 (UniProt Q9H2P9),inactive: 0
3,CRLF3 (UniProt Q8IUI8),inactive: 0
4,CYB5B (UniProt O43169),inactive: 0
5,DNMT1 (UniProt P26358),inactive: 0
6,DOHH (UniProt Q9BU89),inactive: 0
7,CYLD (UniProt Q9NQC7),inactive: 0
8,DIP2B (UniProt Q9P265),inactive: 0
9,EDC4 (UniProt Q6P2E9),inactive: 0
10,DYRK1A (UniProt Q13627),active: 1
11,CSTF1 (UniProt Q05048),inactive: 0
12,DNAL1 (UniProt Q4LDG9),inactive: 0
13,CTIF (UniProt O43310),inactive: 0
14,CRTC1 (UniProt Q6UUV9),inactive: 0
15,DPP9 (UniProt Q86TI2),inactive: 0
16,CSRP1 (UniProt P21291),inactive: 0
17,DOCK2 (UniProt Q92608),inactive: 0
18,DLST (UniProt P36957),inactive: 0
19,CTSA (UniProt P10619),inactive: 0
20,DGKZ (UniProt Q13574),active: 1
21,EEF1B2 (UniProt P24534),inactive: 0
22,DARS (UniProt P14868),inactive: 0
23,DCTN1 (UniProt Q14203),inactive: 0
24,DDX58 (UniProt O95786),inactive: 0
25,DENND1C (UniProt Q8IV53),inactive: 0
26,CSDE1 (UniProt O75534),inactive: 0
27,DSCC1 (UniProt Q9BVC3),active: 1

# Numbers 4–5, quoted:
row,Target,dose-dependent thermal stabilisation call
4,CYB5B (UniProt O43169),inactive: 0
5,DNMT1 (UniProt P26358),inactive: 0
